Test results published in patent publication EP4268901A2.
No constants are given. Whether binding was seen depends on the method and setting. Binding can be weak; no strength is given. Values belong to the binder of their own block, whether it stands above or below them.

Tests used:
[1] = target: cynomolgus monkey IL-2Rβ subunit (cynomolgus monkey); test: competition ELISA, peptide tracer
[2] = target: cynomolgus monkey IL-2Rγc subunit (cynomolgus monkey); test: competition ELISA, peptide tracer

- binding [1]: binds
- binding [2]: binds
B1: IL-2Rβγc ligand having SEQ ID NO: 4171 (peptide)
peptide: GGGELLVDCFKVKVGELCDLFFGPAPAPAPAPAPAPAPAGVVCQDWEGVELCWQGG

- binding [2]: binds
Binder: GGWYPCWMAQLGELCDLDGGGGSGGVVCQDWEGVELCWQGG [IL-2Rβγc ligand having SEQ ID NO: 1263]
